Experimental findings from patent US8815499B2, “In situ detoxification of fermentation inhibitors with reducing agents” (priority 2009, dated 2014) are described below.

Read-outs that look alike come from different tables or passages of the source.

For series [1] the following is noted: acid spruce hydrolysate.
Series [2] has as its system yeast Saccharomyces cerevisiae. Put plainly: Simultaneous saccharification and fermentation (SSF) of sugarcane bagass slurry. It is filed as cell-based. To be noted: 7.5 and 10 mM.
Where [3] appears, read: NH4OH detoxification pH 9, 55° C., 3 h.

In series [1] (setting [3]), `N` [NH4OH, ammonium hydroxide, reference compound] came in with a Glucose concentration of 17.7 g/L, a Mannose concentration of 14.2 g/L, a Phenolic compounds concentration of 2.5 g/L and a Xylose concentration of 6.8 g/L.
With `O=S([O-])S(=O)[O-].[Na+].[Na+]` [Dithionite, Sodium dithionite], the Glucose concentration in series [1] (2.5 mM) amounted to 18.3 g/L; in series [1] (5.0 mM) it was 18.7 g/L; in series [1] (7.5 mM), 18.8 g/L; in series [1] (10.0 mM), 18.1 g/L; in series [1] (12.5 mM), 18.1 g/L; in series [1] (15.0 mM), 18.3 g/L. The Mannose concentration was determined as 14.9 g/L in series [1] (2.5 mM); 14.7 g/L in series [1] (5.0 mM); 14.8 g/L in series [1] (7.5 mM); 14.9 g/L in series [1] (10.0 mM); 14.7 g/L in series [1] (12.5 mM); 14.7 g/L in series [1] (15.0 mM). For the same compound, the Phenolic compounds concentration in series [1] (2.5 mM) is on record as 2.9 g/L; in series [1] (5.0 mM), 2.9 g/L; in series [1] (7.5 mM), 2.9 g/L; in series [1] (10.0 mM), 2.8 g/L; in series [1] (12.5 mM), 2.9 g/L; in series [1] (15.0 mM), 2.8 g/L. For the same compound, the Xylose concentration in series [1] (2.5 mM) is given as 6.6 g/L; in series [1] (5.0 mM) it was 6.6 g/L; in series [1] (7.5 mM), 6.7 g/L; in series [1] (10.0 mM) it was 6.5 g/L; in series [1] (12.5 mM) it was 6.4 g/L; in series [1] (15.0 mM), 6.4 g/L. In addition, in series [2], the Formation of precipitates entry is recorded as “did not lead to any formation of precipitates”.
As for `O=S([O-])[O-].[Na+].[Na+]` [Sulphite, sodium sulphite], in series [2], the Formation of precipitates entry is listed as “did not lead to any formation of precipitates”.
